Counter-ions that a name gives are not always drawn. ± gives the standard deviation of the averaged measurements. The list shows a part of the results. The data scatter; read single values as rough.
Experiments:
hAMSC donor 1 [1] = test: Hoechst total cell count ratio vs vehicle control; higher = more cells (less toxicity)
hAMSC donor 2 [2] = test: as above
hAMSC donor 1 [3] = test: transgenic luciferase activity (RLU/mg protein) fold change vs vehicle control (ratio); higher = more transgene expression
hAMSC donor 1 [4] = test: transfection efficiency (EGFP+ cells / Hoechst count) fold change vs vehicle control (ratio); higher = enhanced transfection
hAMSC donor 2 [5] = test: as above
hAMSC donor 2 [6] = test: transgenic luciferase activity (RLU/mg protein) fold change vs vehicle control (ratio); hAMSC are human adipose-derived mesenchymal stem cells given an EGFP-luciferase plasmid by lipofection; higher = more transgene expression; settings: priming compound concentration 0.2 µM
[7] = priming compound concentration 0.2 µM
[8] = priming compound concentration 1.7 µM
[9] = priming compound concentration 13 µM

SMILES	Hoechst total cell count ratio (hAMSC donor 1 [1]; [7])	Hoechst total cell count ratio (hAMSC donor 1 [1]; [8])	Hoechst total cell count ratio (hAMSC donor 1 [1]; [9])	Hoechst total cell count ratio (hAMSC donor 2 [2]; [7])	Hoechst total cell count ratio (hAMSC donor 2 [2]; [8])	Hoechst total cell count ratio (hAMSC donor 2 [2]; [9])	transgenic luciferase activity (hAMSC donor 1 [3]; [9])	transfection efficiency (hAMSC donor 1 [4]; [7])	transfection efficiency (hAMSC donor 1 [4]; [8])	transfection efficiency (hAMSC donor 1 [4]; [9])	transfection efficiency (hAMSC donor 2 [5]; [7])	transfection efficiency (hAMSC donor 2 [5]; [8])	transfection efficiency (hAMSC donor 2 [5]; [9])	transgenic luciferase activity (hAMSC donor 1 [3]; [7])	transgenic luciferase activity (hAMSC donor 2 [6])	transgenic luciferase activity (hAMSC donor 1 [3]; [8])
CC[C@@]1(O)C(=O)OCc2c1cc1n(c2=O)Cc2cc3c(CN(C)C)c(O)ccc3nc2-1 [Topotecan hydrochloride]	0.942 ± 0.16	0.697 ± 0.038	0.741 ± 0.13	0.697 ± 0.18	0.541 ± 0.16	0.414 ± 0.11	0.861 ± 0.16	0.987 ± 0.072	1.33 ± 0.21	1.63 ± 0.59	1.4 ± 0.19	1.63 ± 0.071	1.67 ± 0.2	–	–	–
O=S(=O)(O)CCS [Mesna]	1.21 ± 0.052	1.15 ± 0.094	1.24 ± 0.16	0.987 ± 0.3	1.35 ± 0.063	1.28 ± 0.066	–	0.55 ± 0.23	1.36 ± 0.64	1.83 ± 0.45	1.42 ± 0.26	0.754 ± 0.08	1.03 ± 0.1	1.09 ± 0.65	0.823 ± 0.018	–
CCC1=C[C@@H]2CN(C1)Cc1c([nH]c3ccccc13)[C@@](C(=O)OC)(c1cc3c(cc1OC)N(C)[C@H]1[C@@](O)(C(=O)OC)[C@H](OC(C)=O)[C@]4(CC)C=CCN5CC[C@]31[C@@H]54)C2 [Vinorelbine tartrate]	1.16 ± 0.22	0.831 ± 0.065	0.659 ± 0.15	0.738 ± 0.097	0.458 ± 0.024	0.576 ± 0.13	0.792 ± 0.3	1.09 ± 0.29	1.26 ± 0.072	1.02 ± 0.073	1.36 ± 0.39	1.53 ± 0.21	0.815 ± 0.24	–	–	–
Nc1nc(=O)[nH]cc1F [Flucytosine]	1.46 ± 0.36	1.23 ± 0.18	1.2 ± 0.12	0.905 ± 0.11	1.04 ± 0.024	0.946 ± 0.21	–	1.18 ± 0.49	0.967 ± 0.32	1.17 ± 0.18	1.36 ± 0.12	1.19 ± 0.33	1.9 ± 0.63	–	–	0.847 ± 0.38
CC(c1cc2ccccc2s1)N(O)C(N)=O (stereo unspecified) [Zileuton]	1.51 ± 0.11	1.3 ± 0.11	1.32 ± 0.077	1.09 ± 0.4	1.02 ± 0.1	1.33 ± 0.26	–	1.27 ± 0.17	0.996 ± 0.11	1.25 ± 0.32	0.924 ± 0.44	1.19 ± 0.023	1.06 ± 0.27	–	–	0.701 ± 0.094
CS(=O)(=O)c1ccc(C2=C(c3ccccc3)C(=O)OC2)cc1 [Rofecoxib]	1.28 ± 0.16	1.18 ± 0.087	1.15 ± 0.029	1.12 ± 0.16	0.932 ± 0.06	1.25 ± 0.21	0.959 ± 0.25	0.978 ± 0.15	1.09 ± 0.21	0.7 ± 0.32	1.15 ± 0.15	1.33 ± 0.04	0.843 ± 0.14	–	–	–
CSc1nc2cc(Cl)c(Oc3cccc(Cl)c3Cl)cc2[nH]1 [Triclabendazole]	1.18 ± 0.28	1.05 ± 0.056	1.11 ± 0.14	0.954 ± 0.1	1.25 ± 0.12	1.31 ± 0.11	0.961 ± 0.5	1.15 ± 0.36	1.31 ± 0.054	0.662 ± 0.21	1.44 ± 0.3	1.02 ± 0.19	0.924 ± 0.11	–	–	–
CN(C)CCC=C1c2ccccc2CCc2ccccc21 [Amitriptyline hydrochloride]	1.4 ± 0.12	1.19 ± 0.097	1.47 ± 0.15	0.998 ± 0.4	0.901 ± 0.099	1.32 ± 0.18	–	1.35 ± 0.32	1.13 ± 0.21	1.05 ± 0.17	0.904 ± 0.4	0.926 ± 0.19	0.976 ± 0.11	–	–	0.765 ± 0.21
CC(=O)O[C@H]1C[C@@H]2CC[C@@H]3[C@H](CC[C@@]4(C)[C@H]3C[C@H]([N+]3(C)CCCCC3)[C@@H]4OC(C)=O)[C@@]2(C)C[C@@H]1N1CCCCC1 [Vecuronium bromide]	0.895 ± 0.14	0.845 ± 0.21	0.973 ± 0.13	1.5 ± 0.42	1.16 ± 0.22	0.946 ± 0.4	1.19 ± 0.81	1.25 ± 0.23	1.44 ± 0.19	0.957 ± 0.22	1.08 ± 0.12	1.3 ± 0.14	1.21 ± 0.37	–	–	–
Nc1nnc(-c2cccc(Cl)c2Cl)c(N)n1 [Lamotrigine]	1.15 ± 0.075	1.08 ± 0.061	1.08 ± 0.016	1.23 ± 0.094	0.647 ± 0.047	0.814 ± 0.22	0.559 ± 0.25	0.758 ± 0.025	1.15 ± 0.21	0.864 ± 0.46	1.01 ± 0.26	1.29 ± 0.27	1.08 ± 0.061	–	–	–
Cc1ncc([N+](=O)[O-])n1CC(O)CCl (stereo unspecified) [Ornidazole]	1.2 ± 0.031	1.2 ± 0.07	1.38 ± 0.14	0.958 ± 0.29	1.3 ± 0.35	1.55 ± 0.31	0.677 ± 0.047	0.958 ± 0.15	1.45 ± 0.1	0.977 ± 0.12	1.27 ± 0.11	1.05 ± 0.18	0.651 ± 0.088	–	–	–
Nc1nc(N)nc(-c2cc(Cl)ccc2Cl)n1 [Irsogladine maleate]	1.16 ± 0.24	1.09 ± 0.14	1.04 ± 0.24	1.86 ± 0.49	1.42 ± 0.24	1.27 ± 0.078	0.677 ± 0.15	1.01 ± 0.23	1.48 ± 0.28	1.3 ± 0.23	0.782 ± 0.22	1.11 ± 0.091	0.835 ± 0.14	–	–	–
CSc1ccc2c(c1)N(CCC1CCCCN1C)c1ccccc1S2 (stereo unspecified) [Thioridazine hydrochloride]	1.26 ± 0.16	1.23 ± 0.17	1.14 ± 0.084	0.966 ± 0.61	1.11 ± 0.022	0.575 ± 0.14	–	1.36 ± 0.2	1.11 ± 0.29	0.934 ± 0.18	1.22 ± 0.53	1.28 ± 0.15	1.09 ± 0.2	–	–	1.38 ± 0.43
COc1ccc(-c2cc(=O)c3c(OC)c(OC)c(OC)c(OC)c3o2)cc1OC [Nobiletin]	1.1 ± 0.067	1.11 ± 0.015	1.08 ± 0.092	1.41 ± 0.39	1.07 ± 0.098	1.41 ± 0.32	0.699 ± 0.24	1.16 ± 0.25	1.28 ± 0.07	0.822 ± 0.063	0.832 ± 0.27	1.14 ± 0.31	0.943 ± 0.2	–	–	–
C#C[C@]1(O)CC[C@H]2[C@@H]3CCC4=CC(=O)CC[C@@H]4[C@H]3CC[C@@]21C [19-Norethindrone]	1.21 ± 0.099	1.14 ± 0.075	1.22 ± 0.049	1.11 ± 0.31	1.38 ± 0.027	0.999 ± 0.39	–	1.59 ± 0.3	1.19 ± 0.18	1.41 ± 0.3	1.08 ± 0.12	1.09 ± 0.03	1.43 ± 0.22	–	–	0.886 ± 0.17

3 entries already listed, sorted by count of non-hydrogen atoms, smallest number first.
SMILES	Hoechst total cell count ratio (hAMSC donor 1 [1]; [7])	Hoechst total cell count ratio (hAMSC donor 1 [1]; [8])	Hoechst total cell count ratio (hAMSC donor 1 [1]; [9])	Hoechst total cell count ratio (hAMSC donor 2 [2]; [7])	Hoechst total cell count ratio (hAMSC donor 2 [2]; [8])	Hoechst total cell count ratio (hAMSC donor 2 [2]; [9])	transgenic luciferase activity (hAMSC donor 1 [3]; [9])	transfection efficiency (hAMSC donor 1 [4]; [7])	transfection efficiency (hAMSC donor 1 [4]; [8])	transfection efficiency (hAMSC donor 1 [4]; [9])	transfection efficiency (hAMSC donor 2 [5]; [7])	transfection efficiency (hAMSC donor 2 [5]; [8])	transfection efficiency (hAMSC donor 2 [5]; [9])	transgenic luciferase activity (hAMSC donor 1 [3]; [7])	transgenic luciferase activity (hAMSC donor 2 [6])	transgenic luciferase activity (hAMSC donor 1 [3]; [8])
CN(C)CCC=C1c2ccccc2CCc2ccccc21 [Amitriptyline hydrochloride]	1.4 ± 0.12	1.19 ± 0.097	1.47 ± 0.15	0.998 ± 0.4	0.901 ± 0.099	1.32 ± 0.18	–	1.35 ± 0.32	1.13 ± 0.21	1.05 ± 0.17	0.904 ± 0.4	0.926 ± 0.19	0.976 ± 0.11	–	–	0.765 ± 0.21
CS(=O)(=O)c1ccc(C2=C(c3ccccc3)C(=O)OC2)cc1 [Rofecoxib]	1.28 ± 0.16	1.18 ± 0.087	1.15 ± 0.029	1.12 ± 0.16	0.932 ± 0.06	1.25 ± 0.21	0.959 ± 0.25	0.978 ± 0.15	1.09 ± 0.21	0.7 ± 0.32	1.15 ± 0.15	1.33 ± 0.04	0.843 ± 0.14	–	–	–
CC[C@@]1(O)C(=O)OCc2c1cc1n(c2=O)Cc2cc3c(CN(C)C)c(O)ccc3nc2-1 [Topotecan hydrochloride]	0.942 ± 0.16	0.697 ± 0.038	0.741 ± 0.13	0.697 ± 0.18	0.541 ± 0.16	0.414 ± 0.11	0.861 ± 0.16	0.987 ± 0.072	1.33 ± 0.21	1.63 ± 0.59	1.4 ± 0.19	1.63 ± 0.071	1.67 ± 0.2	–	–	–

Reference: the supplement of paper PMC7238544
